No constants are given. Whether binding was seen depends on the method and setting. For some of these results: Binding seen in cells or lysates may run through a third protein. Some binding calls cover weakened binding; strength is not graded here. For some of these results: Tags and fused reporters may be left off the sequences shown. Values belong to the substance of their own block, whether it stands above or below them.
Assays:
[1] = target: T1, LHFPL5 (lipoma HMGIC fusion partner-like 5) with Strep-mCerulean (mouse (Mus musculus)) (UniProt Q4KL25); test: pull-down; lysates of co-transfected HEK293 tsa201 cells bound to StrepTactin resin (Strep tag on the mCerulean-tagged partner), washed in 1 mM DDM, 20 mM Tris pH 8.0, 150 mM NaCl, eluted with 10 mM desthiobiotin; eluates analysed by mcFSEC
T1 sequence: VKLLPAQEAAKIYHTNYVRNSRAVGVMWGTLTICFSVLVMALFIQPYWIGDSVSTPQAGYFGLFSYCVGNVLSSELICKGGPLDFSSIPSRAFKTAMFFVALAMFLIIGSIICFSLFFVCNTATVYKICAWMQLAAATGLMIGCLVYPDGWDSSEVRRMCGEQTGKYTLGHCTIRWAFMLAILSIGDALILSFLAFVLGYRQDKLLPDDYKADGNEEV

Protein sequences, listed by entry. Tags and fused reporters are not part of them. Lines headed by an entry give the natural chain unless they say otherwise; changes in a name come on top. Chains listed by the source or under a name are the forms on record and can include a tag or linker.
PCDH15_(4EC) (mouse protocadherin 15, EC8 to CR) with mVenus-8xHis (Q99PJ1, form named): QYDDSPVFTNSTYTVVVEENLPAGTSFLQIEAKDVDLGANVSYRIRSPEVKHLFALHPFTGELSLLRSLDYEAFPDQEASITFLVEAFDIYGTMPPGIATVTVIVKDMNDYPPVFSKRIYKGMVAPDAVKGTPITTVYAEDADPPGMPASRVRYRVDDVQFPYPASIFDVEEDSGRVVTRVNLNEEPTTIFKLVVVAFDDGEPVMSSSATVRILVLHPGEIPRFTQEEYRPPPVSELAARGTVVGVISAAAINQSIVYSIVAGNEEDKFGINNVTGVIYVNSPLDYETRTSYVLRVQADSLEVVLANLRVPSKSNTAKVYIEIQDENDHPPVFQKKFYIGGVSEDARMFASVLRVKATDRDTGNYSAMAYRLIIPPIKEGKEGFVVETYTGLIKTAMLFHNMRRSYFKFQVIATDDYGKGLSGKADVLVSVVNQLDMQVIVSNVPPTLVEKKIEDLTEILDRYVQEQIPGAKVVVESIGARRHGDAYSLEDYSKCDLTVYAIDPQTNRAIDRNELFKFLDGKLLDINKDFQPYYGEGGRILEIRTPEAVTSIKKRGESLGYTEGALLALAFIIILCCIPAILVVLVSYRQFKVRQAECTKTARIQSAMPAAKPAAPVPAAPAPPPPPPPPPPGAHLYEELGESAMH
PCDH15_(4EC) Δ1413, Glu1373 mutated to cysteine (Q99PJ1, form named): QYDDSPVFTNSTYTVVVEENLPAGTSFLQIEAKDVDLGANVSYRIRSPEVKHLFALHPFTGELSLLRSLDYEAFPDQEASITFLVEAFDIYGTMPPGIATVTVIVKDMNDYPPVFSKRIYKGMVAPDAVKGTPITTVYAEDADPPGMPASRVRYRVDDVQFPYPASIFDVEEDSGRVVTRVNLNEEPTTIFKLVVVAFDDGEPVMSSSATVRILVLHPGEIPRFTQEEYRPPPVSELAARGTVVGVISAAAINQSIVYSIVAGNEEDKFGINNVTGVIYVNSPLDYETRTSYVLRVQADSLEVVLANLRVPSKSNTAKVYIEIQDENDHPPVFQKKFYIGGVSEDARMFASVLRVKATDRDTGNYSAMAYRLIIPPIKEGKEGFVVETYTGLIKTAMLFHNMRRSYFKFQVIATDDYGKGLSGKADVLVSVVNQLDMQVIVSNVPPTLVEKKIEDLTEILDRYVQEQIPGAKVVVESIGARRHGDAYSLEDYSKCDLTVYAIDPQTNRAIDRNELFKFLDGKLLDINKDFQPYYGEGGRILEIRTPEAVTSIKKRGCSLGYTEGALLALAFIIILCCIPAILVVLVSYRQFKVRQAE
PCDH15_(4EC) Δ1413, residue 1377 (Tyr1377) mutated to cysteine (Q99PJ1, form named): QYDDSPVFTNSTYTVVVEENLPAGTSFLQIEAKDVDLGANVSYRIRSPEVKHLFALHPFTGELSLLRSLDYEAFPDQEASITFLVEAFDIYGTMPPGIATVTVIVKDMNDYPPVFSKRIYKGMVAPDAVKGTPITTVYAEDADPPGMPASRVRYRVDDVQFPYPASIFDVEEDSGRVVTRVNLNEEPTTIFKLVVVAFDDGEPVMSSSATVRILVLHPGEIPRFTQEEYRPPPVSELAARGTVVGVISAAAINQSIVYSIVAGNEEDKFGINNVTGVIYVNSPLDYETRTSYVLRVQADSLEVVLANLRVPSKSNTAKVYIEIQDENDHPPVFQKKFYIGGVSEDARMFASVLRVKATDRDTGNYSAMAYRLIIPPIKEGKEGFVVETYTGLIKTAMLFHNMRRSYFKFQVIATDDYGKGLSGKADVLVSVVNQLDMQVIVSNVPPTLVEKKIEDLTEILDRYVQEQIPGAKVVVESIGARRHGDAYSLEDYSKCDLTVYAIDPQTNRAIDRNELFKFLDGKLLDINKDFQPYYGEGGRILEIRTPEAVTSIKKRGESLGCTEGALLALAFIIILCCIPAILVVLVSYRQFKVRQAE

[2] = target: T1, LHFPL5 (lipoma HMGIC fusion partner-like 5) with Strep-mCerulean (mouse (Mus musculus)); test: SEC; multicolor fluorescence-detection SEC (mcFSEC) of clarified lysates of co-transfected HEK293 tsa201 cells; 20 mM DDM lysis, 50 mM Tris pH 8.0, 150 mM NaCl; Superose 6 Increase 10/300 GL; mVenus and mCerulean fluorescence
[3] = target: PCDH15_(4EC) Δ1413, Glu1373 mutated to cysteine (mouse (Mus musculus)) (UniProt Q99PJ1); test: cross-linking; spontaneous disulfide formation of single-cysteine mutants of PCDH15_(4EC) Δ1413 co-expressed with LHFPL5 in HEK293 tsa201; lysates in 1% digitonin, 150 mM NaCl, 50 mM Tris pH 8.0, 1 mM CaCl2; SDS-PAGE with 40 mM N-ethylmaleimide (oxidizing) or 500 mM β-mercaptoethanol (reducing); in-gel fluorescence
[4] = target: PCDH15_(4EC) Δ1413, residue 1377 (Tyr1377) mutated to cysteine (mouse (Mus musculus)) (UniProt Q99PJ1); test: as above

binding [1]: binds | binding [2]: binds
Substance: PCDH15_(4EC) (mouse protocadherin 15, EC8 to CR) with mVenus-8xHis (from UniProt Q99PJ1 27-30; Q99PJ1 821-1462) (domain or fragment)

binding [3]: binds
Substance: PCDH15_(4EC) Δ1413, Glu1373 mutated to cysteine (from UniProt Q99PJ1 27-30; Q99PJ1 821-1413) (domain or fragment)

binding [4]: binds
Substance: PCDH15_(4EC) Δ1413, residue 1377 (Tyr1377) mutated to cysteine (from UniProt Q99PJ1 27-30; Q99PJ1 821-1413) (domain or fragment)
